Results are given in words; binding and its absence hold for the method and conditions named. Binding seen in cells or lysates may run through a third protein. Some results given as binding are weak or reduced against the parent protein; the word gives no strength. Where a sequence is shown, tags or fusion partners need not be part of it.
Biological target: T1, α-1,4-galactosyltransferase (A4GALT) with an N-terminal triple FLAG tag (human) (UniProt Q9NPC4)
T1 sequence: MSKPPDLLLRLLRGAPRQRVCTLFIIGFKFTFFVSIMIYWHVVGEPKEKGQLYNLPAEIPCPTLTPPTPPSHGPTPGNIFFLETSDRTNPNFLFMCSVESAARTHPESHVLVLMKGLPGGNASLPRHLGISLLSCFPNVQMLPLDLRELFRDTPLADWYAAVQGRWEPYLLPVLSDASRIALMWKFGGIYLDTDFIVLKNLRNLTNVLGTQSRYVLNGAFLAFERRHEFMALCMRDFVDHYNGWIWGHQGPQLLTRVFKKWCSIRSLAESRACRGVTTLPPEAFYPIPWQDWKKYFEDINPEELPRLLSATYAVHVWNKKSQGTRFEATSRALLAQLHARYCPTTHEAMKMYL
Assay: co-IP

B1: lysosomal-associated protein transmembrane 4 beta (LAPTM4B) with a C-terminal triple HA tag (protein, UniProt Q86VI4-2 1-226)
chain: MKMVAPWTRFYSNSCCLCCHVRTGTILLGVWYLIINAVVLLILLSALADPDQYNFSSSELGGDFEFMDDANMCIAIAISLLMILICAMATYGAYKQRAAWIIPFFCYQIFDFALNMLVAITVLIYPNSIQEYIRQLPPNFPYRDDVMSVNPTCLVLIILLFISIILTFKGYLISCVWNCYRYINGRNSSDVLVYVTSNDTTVLLPPYDDATVNGAAKEPPPPYVSA
B1 was tested, and the binding was “binds”.

— PMC6258472
